From the supplement of paper PMC10849652
The list shows a part of the results.

Protein sequences, listed by entry. Tags and fused reporters are not part of them. Lines headed by an entry give the natural chain unless they say otherwise; changes in a name come on top.
UniProt Q9NVS9: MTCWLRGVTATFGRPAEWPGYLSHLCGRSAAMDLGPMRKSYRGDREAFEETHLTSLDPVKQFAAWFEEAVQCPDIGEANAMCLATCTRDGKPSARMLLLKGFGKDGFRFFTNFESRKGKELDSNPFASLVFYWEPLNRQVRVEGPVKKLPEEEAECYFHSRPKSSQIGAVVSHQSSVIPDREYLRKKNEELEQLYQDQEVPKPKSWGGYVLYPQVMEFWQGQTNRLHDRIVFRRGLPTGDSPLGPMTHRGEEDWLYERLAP
UniProt O75688: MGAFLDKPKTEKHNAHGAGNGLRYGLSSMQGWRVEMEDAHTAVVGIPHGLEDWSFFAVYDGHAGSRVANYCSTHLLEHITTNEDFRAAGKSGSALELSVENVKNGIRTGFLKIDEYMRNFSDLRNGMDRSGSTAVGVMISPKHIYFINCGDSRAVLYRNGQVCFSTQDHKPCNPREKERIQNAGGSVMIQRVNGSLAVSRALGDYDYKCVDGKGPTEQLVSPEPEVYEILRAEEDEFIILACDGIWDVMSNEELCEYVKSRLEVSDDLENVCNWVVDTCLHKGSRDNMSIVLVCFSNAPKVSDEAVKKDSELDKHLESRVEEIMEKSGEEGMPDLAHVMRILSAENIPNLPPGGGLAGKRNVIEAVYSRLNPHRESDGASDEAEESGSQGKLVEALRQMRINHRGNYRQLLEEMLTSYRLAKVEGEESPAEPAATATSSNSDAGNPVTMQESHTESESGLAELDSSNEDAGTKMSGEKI
UniProt O60664: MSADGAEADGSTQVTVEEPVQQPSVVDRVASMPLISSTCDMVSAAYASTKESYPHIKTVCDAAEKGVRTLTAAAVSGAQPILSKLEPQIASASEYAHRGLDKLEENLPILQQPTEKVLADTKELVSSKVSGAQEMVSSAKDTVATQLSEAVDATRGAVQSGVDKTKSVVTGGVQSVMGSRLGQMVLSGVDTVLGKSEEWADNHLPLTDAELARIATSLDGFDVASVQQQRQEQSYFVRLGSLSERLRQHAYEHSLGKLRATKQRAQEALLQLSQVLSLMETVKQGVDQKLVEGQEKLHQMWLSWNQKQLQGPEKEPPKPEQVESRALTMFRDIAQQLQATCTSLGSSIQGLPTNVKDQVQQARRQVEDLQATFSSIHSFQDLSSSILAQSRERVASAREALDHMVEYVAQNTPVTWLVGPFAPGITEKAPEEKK
UniProt Q7Z4H8: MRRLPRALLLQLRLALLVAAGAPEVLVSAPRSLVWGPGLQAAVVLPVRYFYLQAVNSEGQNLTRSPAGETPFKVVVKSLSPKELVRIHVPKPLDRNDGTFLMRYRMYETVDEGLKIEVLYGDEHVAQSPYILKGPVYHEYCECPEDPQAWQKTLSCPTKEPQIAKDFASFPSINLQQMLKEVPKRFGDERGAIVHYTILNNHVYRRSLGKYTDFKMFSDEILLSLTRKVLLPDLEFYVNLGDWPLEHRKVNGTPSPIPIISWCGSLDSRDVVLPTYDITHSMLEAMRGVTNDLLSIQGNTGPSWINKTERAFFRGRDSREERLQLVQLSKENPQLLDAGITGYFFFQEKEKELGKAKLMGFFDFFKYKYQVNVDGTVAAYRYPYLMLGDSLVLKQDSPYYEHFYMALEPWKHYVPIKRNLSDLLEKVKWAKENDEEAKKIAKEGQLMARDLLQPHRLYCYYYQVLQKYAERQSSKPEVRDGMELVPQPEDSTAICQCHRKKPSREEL
UniProt P30405: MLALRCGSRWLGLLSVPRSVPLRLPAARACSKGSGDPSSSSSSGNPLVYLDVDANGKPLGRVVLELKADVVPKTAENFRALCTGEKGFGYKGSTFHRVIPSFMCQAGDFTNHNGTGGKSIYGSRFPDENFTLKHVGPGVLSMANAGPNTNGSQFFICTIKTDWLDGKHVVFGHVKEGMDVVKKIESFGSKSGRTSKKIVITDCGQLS
UniProt O75334: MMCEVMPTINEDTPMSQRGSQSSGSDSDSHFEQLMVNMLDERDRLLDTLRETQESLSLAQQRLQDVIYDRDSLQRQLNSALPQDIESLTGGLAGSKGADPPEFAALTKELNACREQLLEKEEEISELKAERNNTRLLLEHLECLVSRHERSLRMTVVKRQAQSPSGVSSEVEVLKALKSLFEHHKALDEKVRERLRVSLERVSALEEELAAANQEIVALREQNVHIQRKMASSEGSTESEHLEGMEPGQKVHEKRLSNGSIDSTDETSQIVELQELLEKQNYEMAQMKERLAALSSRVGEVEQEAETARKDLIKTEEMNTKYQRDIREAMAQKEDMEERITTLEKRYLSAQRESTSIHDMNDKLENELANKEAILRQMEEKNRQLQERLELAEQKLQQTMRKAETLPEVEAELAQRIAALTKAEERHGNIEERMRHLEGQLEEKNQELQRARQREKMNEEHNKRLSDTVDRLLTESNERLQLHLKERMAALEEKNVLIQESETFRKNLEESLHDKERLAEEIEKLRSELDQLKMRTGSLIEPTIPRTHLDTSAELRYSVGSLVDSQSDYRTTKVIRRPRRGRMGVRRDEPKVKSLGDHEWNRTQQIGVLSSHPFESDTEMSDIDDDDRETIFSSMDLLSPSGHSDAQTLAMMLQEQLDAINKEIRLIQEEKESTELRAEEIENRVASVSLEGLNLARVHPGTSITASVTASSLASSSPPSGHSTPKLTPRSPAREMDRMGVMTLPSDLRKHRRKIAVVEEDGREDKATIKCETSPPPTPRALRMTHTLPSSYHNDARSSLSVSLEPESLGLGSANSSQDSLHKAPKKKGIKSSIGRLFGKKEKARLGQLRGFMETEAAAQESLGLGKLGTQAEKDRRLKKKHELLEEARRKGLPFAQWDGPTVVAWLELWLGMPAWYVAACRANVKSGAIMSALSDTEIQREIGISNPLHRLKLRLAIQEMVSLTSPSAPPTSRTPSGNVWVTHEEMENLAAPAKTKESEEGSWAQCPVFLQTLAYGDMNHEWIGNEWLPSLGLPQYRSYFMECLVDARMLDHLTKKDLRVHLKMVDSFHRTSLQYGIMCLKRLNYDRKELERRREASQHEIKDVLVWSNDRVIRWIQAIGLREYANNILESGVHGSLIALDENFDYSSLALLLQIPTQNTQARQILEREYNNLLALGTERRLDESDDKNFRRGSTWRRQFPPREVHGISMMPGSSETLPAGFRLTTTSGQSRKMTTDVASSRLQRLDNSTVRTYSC
UniProt Q15063: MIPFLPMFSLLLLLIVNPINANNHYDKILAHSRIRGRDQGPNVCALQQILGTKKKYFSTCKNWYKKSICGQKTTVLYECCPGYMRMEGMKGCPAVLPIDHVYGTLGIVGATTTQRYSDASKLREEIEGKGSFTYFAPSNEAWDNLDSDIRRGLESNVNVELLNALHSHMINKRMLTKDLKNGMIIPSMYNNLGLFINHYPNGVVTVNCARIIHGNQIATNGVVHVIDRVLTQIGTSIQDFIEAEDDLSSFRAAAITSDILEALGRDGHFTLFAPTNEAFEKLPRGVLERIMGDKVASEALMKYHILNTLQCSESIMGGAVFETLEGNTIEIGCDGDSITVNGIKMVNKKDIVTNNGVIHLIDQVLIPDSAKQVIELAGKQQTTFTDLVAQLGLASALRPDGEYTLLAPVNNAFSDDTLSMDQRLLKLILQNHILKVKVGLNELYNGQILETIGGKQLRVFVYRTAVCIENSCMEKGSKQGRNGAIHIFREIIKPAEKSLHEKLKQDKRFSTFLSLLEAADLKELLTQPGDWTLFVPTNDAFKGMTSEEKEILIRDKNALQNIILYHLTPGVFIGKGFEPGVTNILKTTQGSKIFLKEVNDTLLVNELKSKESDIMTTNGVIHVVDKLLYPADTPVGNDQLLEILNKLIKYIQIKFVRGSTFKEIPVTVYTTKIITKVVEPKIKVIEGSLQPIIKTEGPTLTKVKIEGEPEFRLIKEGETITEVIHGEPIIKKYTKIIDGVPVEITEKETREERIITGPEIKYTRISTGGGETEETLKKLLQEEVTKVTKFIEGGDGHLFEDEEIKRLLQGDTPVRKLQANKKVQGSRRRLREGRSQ
UniProt P14859: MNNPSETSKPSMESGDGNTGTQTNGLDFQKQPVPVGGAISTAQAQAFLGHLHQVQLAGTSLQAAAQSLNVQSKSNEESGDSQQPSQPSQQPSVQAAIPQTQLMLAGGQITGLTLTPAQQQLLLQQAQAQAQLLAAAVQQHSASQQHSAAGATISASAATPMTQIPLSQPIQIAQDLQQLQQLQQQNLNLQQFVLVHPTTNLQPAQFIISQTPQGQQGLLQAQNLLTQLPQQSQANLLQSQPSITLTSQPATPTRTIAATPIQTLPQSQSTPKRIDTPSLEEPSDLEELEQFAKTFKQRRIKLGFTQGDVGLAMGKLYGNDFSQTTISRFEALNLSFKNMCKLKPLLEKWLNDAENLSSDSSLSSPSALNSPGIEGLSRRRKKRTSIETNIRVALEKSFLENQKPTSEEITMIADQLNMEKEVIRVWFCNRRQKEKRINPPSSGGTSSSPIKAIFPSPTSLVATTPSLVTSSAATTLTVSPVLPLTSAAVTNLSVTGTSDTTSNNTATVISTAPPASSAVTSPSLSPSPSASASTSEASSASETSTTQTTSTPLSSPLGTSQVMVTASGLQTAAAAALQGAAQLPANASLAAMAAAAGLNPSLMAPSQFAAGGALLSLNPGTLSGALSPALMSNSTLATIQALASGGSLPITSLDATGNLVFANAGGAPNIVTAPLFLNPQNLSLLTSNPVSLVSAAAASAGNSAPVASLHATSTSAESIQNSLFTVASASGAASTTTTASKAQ
UniProt Q9NQ55: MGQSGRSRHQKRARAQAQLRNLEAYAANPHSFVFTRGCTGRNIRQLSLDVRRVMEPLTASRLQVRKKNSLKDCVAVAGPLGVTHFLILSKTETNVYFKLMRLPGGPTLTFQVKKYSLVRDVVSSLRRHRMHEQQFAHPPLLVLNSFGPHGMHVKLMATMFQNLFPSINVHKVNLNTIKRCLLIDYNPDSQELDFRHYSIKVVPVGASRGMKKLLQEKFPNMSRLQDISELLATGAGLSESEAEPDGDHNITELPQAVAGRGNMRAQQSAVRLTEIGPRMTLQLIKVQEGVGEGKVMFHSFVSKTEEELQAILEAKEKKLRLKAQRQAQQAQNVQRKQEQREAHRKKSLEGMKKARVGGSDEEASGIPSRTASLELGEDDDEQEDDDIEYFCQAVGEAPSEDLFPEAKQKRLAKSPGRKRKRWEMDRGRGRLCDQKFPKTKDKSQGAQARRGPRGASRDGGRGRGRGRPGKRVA
UniProt P23284: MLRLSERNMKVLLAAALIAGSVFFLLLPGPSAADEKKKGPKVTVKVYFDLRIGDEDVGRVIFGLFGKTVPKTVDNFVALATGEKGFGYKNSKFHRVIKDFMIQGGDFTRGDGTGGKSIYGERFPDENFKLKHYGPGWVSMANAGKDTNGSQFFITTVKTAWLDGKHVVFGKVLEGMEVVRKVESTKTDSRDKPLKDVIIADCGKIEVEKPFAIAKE
UniProt O94903: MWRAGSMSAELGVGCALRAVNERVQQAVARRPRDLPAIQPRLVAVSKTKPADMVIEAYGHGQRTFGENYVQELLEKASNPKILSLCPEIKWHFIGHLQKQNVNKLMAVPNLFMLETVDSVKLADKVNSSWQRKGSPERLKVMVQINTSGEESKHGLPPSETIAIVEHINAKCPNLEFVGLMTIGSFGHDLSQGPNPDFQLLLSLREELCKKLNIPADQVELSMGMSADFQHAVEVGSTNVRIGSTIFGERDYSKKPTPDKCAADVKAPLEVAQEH
UniProt Q9BUI4: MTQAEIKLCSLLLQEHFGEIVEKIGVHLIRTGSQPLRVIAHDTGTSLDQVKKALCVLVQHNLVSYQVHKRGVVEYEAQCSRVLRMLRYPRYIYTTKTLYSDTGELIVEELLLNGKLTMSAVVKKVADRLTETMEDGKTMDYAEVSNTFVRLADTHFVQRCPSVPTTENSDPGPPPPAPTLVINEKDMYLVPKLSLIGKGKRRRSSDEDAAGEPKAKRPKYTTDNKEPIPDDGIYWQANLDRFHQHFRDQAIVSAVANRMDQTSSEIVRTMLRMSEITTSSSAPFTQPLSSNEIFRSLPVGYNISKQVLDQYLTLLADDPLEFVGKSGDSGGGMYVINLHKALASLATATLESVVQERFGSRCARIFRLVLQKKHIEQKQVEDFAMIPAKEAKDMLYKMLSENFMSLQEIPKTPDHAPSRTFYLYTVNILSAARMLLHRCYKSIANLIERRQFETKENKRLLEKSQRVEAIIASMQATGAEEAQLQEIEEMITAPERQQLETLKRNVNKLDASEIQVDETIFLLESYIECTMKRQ
UniProt Q9Y2S7: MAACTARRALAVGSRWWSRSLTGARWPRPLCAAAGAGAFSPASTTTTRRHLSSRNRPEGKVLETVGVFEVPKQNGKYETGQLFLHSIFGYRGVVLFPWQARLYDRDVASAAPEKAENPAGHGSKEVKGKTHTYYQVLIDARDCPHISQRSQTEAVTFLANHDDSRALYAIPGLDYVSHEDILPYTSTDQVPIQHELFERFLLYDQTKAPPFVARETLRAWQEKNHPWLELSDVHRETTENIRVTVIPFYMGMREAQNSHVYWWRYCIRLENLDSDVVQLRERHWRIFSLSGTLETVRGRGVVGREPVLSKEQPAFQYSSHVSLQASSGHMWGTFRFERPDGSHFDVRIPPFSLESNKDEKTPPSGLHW

Columns and labels:
Assay in all cases: log2 fold change, soluble protein after heating vs DMSO (PISA); higher = thermal stabilisation; K562 cells, 10 uM, 30 min; active = over 0.2 and 3.5 SD of the protein, either way, in both replicates (recomputed)
[1] = compound: CC[C@@H]1C(=O)N(C)c2cnc(Nc3ccc(C(=O)NC4CCN(C)CC4)cc3OC)nc2N1C1CCCC1
How it was run: (§1)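 Thermal stability values are relative to control samples and come from duplicates. They are expressed as log2 fold changes. For measurement, K562 cells (2×10^6 cells/mL) received 10 μM compound for 30 min, and aliquots were heated for 3 min over 48°C-58°C, pooled, and extracted at 4°C in PBS with 0.5% NP-40. Soluble protein, the supernatant after 21,000xg for 90 min, was quantified by TMTpro 16plex LC-MS/MS with equalised channel sums.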

volasertib = compound: CC[C@@H]1C(=O)N(C)c2cnc(Nc3ccc(C(=O)N[C@H]4CC[C@H](N5CCN(CC6CC6)CC5)CC4)cc3OC)nc2N1C(C)C [volasertib]
How it was run: as §1

[2] = compound: CC[C@H](C)N1C=C(C2=C(C=C(C=C21)C3=CN=C(C=C3)N4CCNCC4)C(=O)NCC5=C(C=C(NC5=O)C)C)C
How it was run: as §1

epoxomicin = compound: CC[C@H](C)[C@@H](C(=O)N[C@@H]([C@@H](C)O)C(=O)N[C@@H](CC(C)C)C(=O)[C@]1(CO1)C)NC(=O)[C@H]([C@@H](C)CC)N(C)C(=O)C [epoxomicin]
How it was run: as §1

[3] = compound: CCn1c(C(=O)N(C2CC2)C2CC2)cc2c3c(ncn3C)c(Nc3cc(C)n(C)n3)nc21
How it was run: as §1

[4] = compound: CCn1cc(-c2ccnc3[nH]c(-c4cccc(CN(C)C)c4)cc23)c(-c2ccc(NC(=O)N(C)C)cc2)n1
How it was run: as §1

[5] = compound: CN(C)CC(=O)Nc1ccc2[nH]c(=O)c3ccccc3c2c1
How it was run: as §1

rosiglitazone = compound: CN(CCOC1=CC=C(C=C1)C[C@H]2C(=O)NC(=O)S2)C3=CC=CC=N3 (racemic) [rosiglitazone]
How it was run: as §1

[6] = compound: CN1C2=C(C3=C1C(=O)N(N=C3)CC4=CC(=CC=C4)N)SC(=C2)S(=O)C
How it was run: as §1

[7] = compound: CN1CCC(CNc2ccc3ncc(-c4cccc(OC(F)(F)F)c4)n3n2)CC1
How it was run: as §1

saracatinib = compound: CN1CCN(CCOc2cc(OC3CCOCC3)c3c(Nc4c(Cl)ccc5c4OCO5)ncnc3c2)CC1 [saracatinib]
How it was run: as §1

sotrastaurin = compound: CN1CCN(c2nc(C3=C(c4c[nH]c5ccccc45)C(=O)NC3=O)c3ccccc3n2)CC1 [sotrastaurin]
How it was run: as §1

alvocidib = compound: CN1CC[C@H](c2c(O)cc(O)c3c(=O)cc(-c4ccccc4Cl)oc23)[C@H](O)C1 [alvocidib]
How it was run: as §1

Tubastatin A = compound: CN1CCc2c(c3ccccc3n2Cc2ccc(C(=O)NO)cc2)C1 [Tubastatin A]
How it was run: as §1

[8] = compound: CNC(=O)C1=CC=CC=C1NC2=NC(=NC=C2Cl)NC3=C(C=C(C=C3)N4CCOCC4)OC
How it was run: as §1

defactinib = compound: CNC(=O)c1ccc(Nc2ncc(C(F)(F)F)c(NCc3nccnc3N(C)S(C)(=O)=O)n2)cc1 [defactinib]
How it was run: as §1

rucaparib = compound: CNCc1ccc(-c2[nH]c3cc(F)cc4c3c2CCNC4=O)cc1 [rucaparib]
How it was run: as §1

[9] = compound: CNc1nc(-c2ccc3c(N)n[nH]c3c2)cc(N2C[C@@H](C(=O)NC3CCCCC3)CC[C@H]2C)n1
How it was run: as §1

encorafenib = compound: COC(=O)N[C@@H](C)CNc1nccc(-c2cn(C(C)C)nc2-c2cc(Cl)cc(NS(C)(=O)=O)c2F)n1 [encorafenib]
How it was run: as §1

[10] = compound: COC(=O)[C@H](CCSC)NC(=O)C1=C(C=C(C=C1)NC[C@H](CS)N)C2=CC=CC=C2
How it was run: as §1

Measured: log2 fold change

POTEF (UniProt A5A3E0)
inactive: [1] 0.04 | volasertib -0.011 | [2] -0.003 | epoxomicin -0.005 | [3] -0.023 | [4] 0.02 | [5] -0.036 | rosiglitazone 0.01 | [6] -0.062 | [7] 0.006 | saracatinib 0.086 | sotrastaurin 0.034 | alvocidib 0.003 | Tubastatin A 0.034 | [8] -0.04 | defactinib -0.015 | rucaparib -0.02 | [9] -0.055 | encorafenib -0.006 | [10] 0.065

PNPO (UniProt Q9NVS9)
inactive: [1] -0.011 | volasertib 0.022 | [2] 0.008 | epoxomicin 0.052 | [3] -0.031 | [4] 0.029 | [5] -0.06 | rosiglitazone 0.013 | [6] -0.044 | [7] -0.058 | saracatinib 0.019 | sotrastaurin -0.057 | alvocidib -0.04 | Tubastatin A -0.034 | [8] -0.004 | defactinib -0.033 | rucaparib 0.034 | [9] -0.01 | encorafenib -0.033 | [10] 0.057

PPM1B (UniProt O75688)
inactive: [1] 0.025 | volasertib 0.042 | [2] 0.035 | epoxomicin 0.062 | [3] -0.038 | [4] -0.09 | [5] 0.012 | rosiglitazone 0.04 | [6] -0.064 | [7] -0.013 | saracatinib 0 | sotrastaurin 0.031 | alvocidib -0.05 | Tubastatin A -0.022 | [8] 0.008 | defactinib -0.023 | rucaparib -0.031 | [9] -0.015 | encorafenib -0.01 | [10] -0.029

PLIN3 (UniProt O60664)
inactive: [1] -0.034 | volasertib 0.031 | [2] -0.008 | epoxomicin 0.046 | [3] -0.002 | [4] -0.013 | [5] -0.003 | rosiglitazone 0.018 | [6] -0.025 | [7] -0.062 | saracatinib 0.047 | sotrastaurin -0.003 | alvocidib -0.02 | Tubastatin A -0.017 | [8] 0 | defactinib -0.009 | rucaparib -0.072 | [9] -0.052 | encorafenib -0.004 | [10] 0.025

POGLUT3 (UniProt Q7Z4H8)
inactive: [1] 0.015 | volasertib 0.022 | [2] 0.024 | epoxomicin 0.062 | [3] 0.049 | [4] 0.036 | [5] 0.009 | rosiglitazone 0.07 | [6] 0.023 | [7] 0.101 | saracatinib -0.039 | sotrastaurin -0.027 | alvocidib -0.015 | Tubastatin A 0.046 | [8] 0.043 | defactinib 0.016 | rucaparib 0.033 | [9] 0.013 | encorafenib 0.076 | [10] -0.005

PPIF (UniProt P30405)
inactive: [1] 0.018 | volasertib 0.027 | [2] -0.032 | epoxomicin -0.069 | [3] 0.011 | [4] -0.017 | [5] -0.02 | rosiglitazone -0.004 | [6] -0.054 | [7] 0.02 | saracatinib 0.011 | sotrastaurin 0.06 | alvocidib -0.07 | Tubastatin A 0.026 | [8] -0.023 | defactinib 0.001 | rucaparib 0.03 | [9] -0.003 | encorafenib -0.024 | [10] 0.018

Random excerpt: 2 entries already listed, in no set order.
PNPO (UniProt Q9NVS9)
inactive: [1] -0.011 | volasertib 0.022 | [2] 0.008 | epoxomicin 0.052 | [3] -0.031 | [4] 0.029 | [5] -0.06 | rosiglitazone 0.013 | [6] -0.044 | [7] -0.058 | saracatinib 0.019 | sotrastaurin -0.057 | alvocidib -0.04 | Tubastatin A -0.034 | [8] -0.004 | defactinib -0.033 | rucaparib 0.034 | [9] -0.01 | encorafenib -0.033 | [10] 0.057

PPIF (UniProt P30405)
inactive: [1] 0.018 | volasertib 0.027 | [2] -0.032 | epoxomicin -0.069 | [3] 0.011 | [4] -0.017 | [5] -0.02 | rosiglitazone -0.004 | [6] -0.054 | [7] 0.02 | saracatinib 0.011 | sotrastaurin 0.06 | alvocidib -0.07 | Tubastatin A 0.026 | [8] -0.023 | defactinib 0.001 | rucaparib 0.03 | [9] -0.003 | encorafenib -0.024 | [10] 0.018

Later entries:

POLR3F (UniProt Q9H1D9)
inactive: [1] 0.049 | volasertib 0.003 | [2] 0.029 | epoxomicin 0.066 | [3] 0.001 | [4] -0.024 | [5] 0.043 | rosiglitazone 0.029 | [6] -0.048 | [7] 0.026 | saracatinib 0.069 | sotrastaurin 0.038 | alvocidib -0.03 | Tubastatin A 0.028 | [8] -0.034 | defactinib -0.093 | rucaparib -0.032 | [9] -0.033 | encorafenib 0.023 | [10] 0.018

PPFIA2 (UniProt O75334)
inactive: [1] 0.162 | volasertib -0.324 | [2] 0.005 | epoxomicin -0.064 | [3] -0.044 | [4] 0.104 | [5] -0.134 | rosiglitazone -0.029 | [6] 0.18 | [7] -0.028 | saracatinib -0.163 | sotrastaurin -0.158 | alvocidib -0.071 | Tubastatin A 0.139 | [8] 0.02 | defactinib 0.12 | rucaparib 0.129 | [9] -0.01 | encorafenib 0.151 | [10] 0.103

POSTN (UniProt Q15063)
inactive: [1] -0.025 | volasertib -0.024 | [2] -0.089 | epoxomicin -0.241 | [3] -0.038 | [4] -0.012 | [5] -0.071 | rosiglitazone 0.174 | [6] 0.161 | [7] -0.142 | saracatinib -0.016 | sotrastaurin 0.147 | alvocidib 0.028 | Tubastatin A -0.043 | [8] 0.052 | defactinib -0.014 | rucaparib -0.129 | [9] -0.107 | encorafenib -0.009 | [10] 0.006

POU2F1 isoform 6 (UniProt P14859)
inactive: [1] -0.037 | volasertib -0.115 | [2] 0.077 | epoxomicin 0.072 | [3] -0.037 | [4] -0.147 | [5] -0.018 | rosiglitazone 0.106 | [6] -0.024 | [7] -0.158 | saracatinib -0.01 | sotrastaurin -0.114 | alvocidib -0.083 | Tubastatin A 0.089 | [8] -0.086 | defactinib -0.13 | rucaparib 0.003 | [9] 0.063 | encorafenib 0.074 | [10] -0.009

PPAN isoform 3 (UniProt Q9NQ55)
inactive: [1] -0.023 | volasertib 0.278 | [2] -0.153 | epoxomicin -0.303 | [3] 0.014 | [4] 0.136 | [5] 0.017 | rosiglitazone -0.208 | [6] 0.404 | [7] 0.213 | saracatinib -0.069 | sotrastaurin 0.01 | alvocidib 0.216 | Tubastatin A 0.157 | [8] -0.061 | defactinib 0.584 | rucaparib 0.277 | [9] 0.148 | encorafenib 0.19 | [10] -0.083

PPIB (UniProt P23284)
inactive: [1] 0.027 | volasertib -0.012 | [2] 0.011 | epoxomicin -0.024 | [3] 0.006 | [4] 0.055 | [5] -0.044 | rosiglitazone -0.026 | [6] 0.041 | [7] 0.111 | saracatinib -0.063 | sotrastaurin -0.01 | alvocidib 0.049 | Tubastatin A 0 | [8] -0.008 | defactinib 0.054 | rucaparib 0.007 | [9] 0.002 | encorafenib 0.05 | [10] -0.001

PLPBP (UniProt O94903)
inactive: [1] 0 | volasertib -0.108 | [2] 0.027 | epoxomicin 0.033 | [3] -0.11 | [4] -0.063 | [5] 0.049 | rosiglitazone 0.015 | [6] -0.001 | [7] -0.127 | saracatinib -0.088 | sotrastaurin -0.046 | alvocidib -0.134 | Tubastatin A 0.117 | [8] 0.225 | defactinib -0.142 | rucaparib 0.133 | [9] -0.056 | encorafenib 0.003 | [10] -0.028

POLR3C (UniProt Q9BUI4)
inactive: [1] 0.04 | volasertib -0.046 | [2] -0.02 | epoxomicin 0.02 | [3] 0.002 | [4] -0.04 | [5] -0.031 | rosiglitazone 0.007 | [6] -0.081 | [7] 0.009 | saracatinib 0.036 | sotrastaurin 0.004 | alvocidib -0.07 | Tubastatin A 0.018 | [8] -0.039 | defactinib -0.085 | rucaparib -0.013 | [9] -0.073 | encorafenib -0.06 | [10] -0.016

PPIP5K1 (UniProt Q6PFW1)
inactive: [1] 0.01 | volasertib -0.035 | [2] 0.007 | epoxomicin 0.002 | [3] 0.022 | [4] -0.086 | [5] -0.038 | rosiglitazone 0.018 | [6] -0.049 | [7] 0.041 | saracatinib 0.056 | sotrastaurin -0.009 | alvocidib -0.012 | Tubastatin A -0.007 | [8] 0.037 | defactinib 0.005 | rucaparib -0.061 | [9] -0.007 | encorafenib -0.003 | [10] 0.012

POLDIP2 (UniProt Q9Y2S7)
inactive: [1] -0.012 | volasertib -0.058 | [2] 0.049 | epoxomicin 0.018 | [3] -0.027 | [4] -0.033 | [5] 0.005 | rosiglitazone 0.028 | [6] -0.056 | [7] 0.015 | saracatinib 0.029 | sotrastaurin 0.013 | alvocidib -0.049 | Tubastatin A 0.011 | [8] -0.019 | defactinib -0.048 | rucaparib 0.04 | [9] -0.01 | encorafenib -0.015 | [10] 0
